Measurements: paper PMC3162612, “RssAB Signaling Coordinates Early Development of Surface Multicellularity in Serratia marcescens” (PLoS ONE, 2011)
Results are given in words; binding and its absence hold for the method and conditions named. Binding can be weak; no strength is given. Sequences can lack the tags named with a protein.

Biological target: T1, GST-tagged RssB, pretreated with acetyl-phosphate (Serratia marcescens) (UniProt Q8GP20)
T1 sequence (chain, phosphorylated with acetyl-phosphate (RssB~P)): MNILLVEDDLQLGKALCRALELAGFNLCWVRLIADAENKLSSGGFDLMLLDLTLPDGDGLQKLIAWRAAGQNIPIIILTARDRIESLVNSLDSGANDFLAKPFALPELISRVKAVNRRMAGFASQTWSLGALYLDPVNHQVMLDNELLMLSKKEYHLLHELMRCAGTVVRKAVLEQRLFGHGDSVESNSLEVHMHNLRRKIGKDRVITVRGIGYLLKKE
Assay: pull-down; GST, GST-RssB or GST-RssB D51E pretreated with acetyl-phosphate, incubated with His-cRssA and glutathione sepharose-4B in interaction buffer (20 mM Tris-HCl pH 7.5, 10 mM MgCl2, 100 mM KCl), 4°C 1 hr; washed; SDS-PAGE, Coomassie stain and anti-hexa-histidine blot; both purified

Q: Which binding does the source give for “poly histidine-tagged cytoplasmic region of RssA (from UniProt Q8GP19) (domain or fragment)” here?
A: binds
